Source: paper PMC8270967

Protein sequences, listed by entry. Tags and fused reporters are not part of them. Lines headed by an entry give the natural chain unless they say otherwise; changes in a name come on top.
UniProt Q9BY44: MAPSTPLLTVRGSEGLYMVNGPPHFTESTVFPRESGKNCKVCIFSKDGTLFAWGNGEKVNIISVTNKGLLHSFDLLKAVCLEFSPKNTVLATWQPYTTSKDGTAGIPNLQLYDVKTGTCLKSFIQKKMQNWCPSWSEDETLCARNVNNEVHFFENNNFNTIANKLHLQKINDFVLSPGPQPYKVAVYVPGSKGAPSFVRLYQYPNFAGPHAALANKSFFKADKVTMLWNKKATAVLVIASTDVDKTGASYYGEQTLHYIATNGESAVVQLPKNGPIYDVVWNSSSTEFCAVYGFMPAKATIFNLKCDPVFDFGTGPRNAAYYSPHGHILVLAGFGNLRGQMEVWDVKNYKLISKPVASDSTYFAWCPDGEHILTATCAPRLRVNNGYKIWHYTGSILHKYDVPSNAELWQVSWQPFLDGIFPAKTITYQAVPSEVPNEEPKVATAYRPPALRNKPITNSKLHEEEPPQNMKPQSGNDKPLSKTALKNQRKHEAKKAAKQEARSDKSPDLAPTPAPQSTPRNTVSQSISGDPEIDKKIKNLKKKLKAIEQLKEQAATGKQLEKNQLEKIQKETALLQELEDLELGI

Assays:
[1] = target: T1, WD repeat domain 4 (WDR4), endogenous (human (endogenous in HCC cells)) (UniProt P57081); test: co-IP; endogenous co-IP; performed as in ref. 33; which protein was precipitated is not told
T1 sequence: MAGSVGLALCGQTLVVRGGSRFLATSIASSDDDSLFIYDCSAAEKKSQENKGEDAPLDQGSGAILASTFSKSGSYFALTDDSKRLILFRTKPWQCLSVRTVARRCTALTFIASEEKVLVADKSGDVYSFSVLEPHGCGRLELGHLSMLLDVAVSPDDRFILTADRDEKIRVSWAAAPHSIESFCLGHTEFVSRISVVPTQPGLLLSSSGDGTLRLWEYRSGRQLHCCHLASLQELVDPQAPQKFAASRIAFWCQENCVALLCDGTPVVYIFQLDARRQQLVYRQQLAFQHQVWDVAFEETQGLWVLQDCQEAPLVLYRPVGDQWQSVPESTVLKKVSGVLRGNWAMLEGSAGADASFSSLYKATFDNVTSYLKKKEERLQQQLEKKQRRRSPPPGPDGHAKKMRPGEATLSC

[2] = target: T2, WDR4, exogenous (transfected) (UniProt P57081); test: co-IP; exogenous co-IP; performed as in ref. 33; which protein was precipitated is not told
T2 sequence: T1 sequence

Row | Substance | binding [1] | binding [2]
1 | EIF2A, endogenous (from UniProt Q9BY44) | binds | –
2 | EIF2A, exogenous (transfected) (from UniProt Q9BY44) | – | binds

No constants are given. Whether binding was seen depends on the method and setting. In cells and extracts the contact can be indirect. A result given as binding can be weak or reduced; the word gives no strength.
